Source: US8735439B2, “Chlorin e6-folic acid conjugate, preparation method thereof, and a pharmaceutical composition for the treatment of cancer comprising the same” (Diatech Korea Co., Ltd., priority 2009, dated 2014)
Some entries share one result that the patent states for a list of compounds. At least one structure is not confirmed: it was looked up by name or label, or the drawing left a doubt.

Test system: sarcoma M-1
Test: Accumulation kinetics of photosensitizer in rats with sarcoma M-1
Type: in vivo
Conditions: rats with sarcoma M-1, i.v., by 4-5 hours, regardless of dose
Method: The experiments were conducted on 100 white outbred rats with subcutaneous transplantation of sarcoma M-1, 7-9 days after tumor transplant. Photosensitizers were introduced to the animals via an intravenous route, once at a dose of 2.5, 5.0 and 10.0 mg/kg in a room with a low level of light. A sterile isotonic solution of sodium chloride was used as a solvent. Follow up over the dynamics of photosensitizer accumulation in tumor and normal tissues was conducted at 30 mins, 1-5 hours, and 1-6 days after photosensitizer administration.
In tumor tissues of rats with sarcoma M-1 and normal tissues (skin of opposite haunch), the dynamics of photosensitizer accumulation was analyzed by the method of measurement of life time using computer fluorescent spectrophotometry. For this purpose, a laser-fiber spectroanalyzer “LESA-6” with a helium-neon diagnostic laser “LHN 633-25” (BIOSPEC, Moscow) was used. This allows an estimate locally of the level of photosensitizer accumulation in any organs and tissues accessible for an optical fiber probe.
For real time monitoring at every hour after administration of the drug, the distal end of a catheter was placed over the tumor and normal tissues, and the intensity of the drug accumulation was recorded on the wave length corresponding to maximum fluorescence. […]

## C=Cc1c(C)c2cc3nc(c(CC(=O)O)c4[nH]c(cc5nc(cc1[nH]2)C(C)=C5CC)c(C)c4C(=O)O)C(CCC(=O)O)C3C (stereo not drawn) [chlorin e6, 13-carboxy-17-[2-carboxyethyl]-15-carboxymethyl-17,18-trans-dihydro-3-vinyl-8-ethyl-2,7,12,18-tetramethylporphyrin]
  accumulation in tumor tissue relative to normal tissue: 2-3 times
